Consider one molecule from patent US4294841A, “Derivatives of 1-phenyl 3-(4-piperidyl) 1-propanone usable as drugs” (Pharmindustrie, priority 1978, dated 1981).

For this test, the target named is receptors for benzodiazepines in the brain membranes (3H-diazepam binding site). Description: displacement of 3H-diazepam from its binding sites (method of H. Mohler et al.). The note with it: constant used to calculate Ki; read-out: constant of affinity KD of 3H-diazepam. The arrangement: species or system rat. The source says: The anxiolytic activity of the benzodiazepines is well known. The presence of specific receptors for benzodiazepines in the brain membranes of the rat has also been well established (Squires et al. Nature 266, 732, (1977)) and a good correlation exists between the degree of affinity of benzodiazepines for the receiving binding sites and the pharmacodynamic effects observed in the animal and in man.
The results of Table II have been obtained by testing the products according to the method of H. Mohler et al., Life Sciences 20, 2101 (1977).

With `CN1C(=O)CN=C(c2ccccc2)c2cc(Cl)ccc21` [^3 H-diazepam, reference compound], the Kd was 2740 nM.

One may read the Kd as a measure of binding affinity in units of concentration.
